This experiment concerns the target T1, Human ErbB4 extracellular part fused to Fc of human IgG1 (human) (UniProt Q15303).
T1 sequence (looked up): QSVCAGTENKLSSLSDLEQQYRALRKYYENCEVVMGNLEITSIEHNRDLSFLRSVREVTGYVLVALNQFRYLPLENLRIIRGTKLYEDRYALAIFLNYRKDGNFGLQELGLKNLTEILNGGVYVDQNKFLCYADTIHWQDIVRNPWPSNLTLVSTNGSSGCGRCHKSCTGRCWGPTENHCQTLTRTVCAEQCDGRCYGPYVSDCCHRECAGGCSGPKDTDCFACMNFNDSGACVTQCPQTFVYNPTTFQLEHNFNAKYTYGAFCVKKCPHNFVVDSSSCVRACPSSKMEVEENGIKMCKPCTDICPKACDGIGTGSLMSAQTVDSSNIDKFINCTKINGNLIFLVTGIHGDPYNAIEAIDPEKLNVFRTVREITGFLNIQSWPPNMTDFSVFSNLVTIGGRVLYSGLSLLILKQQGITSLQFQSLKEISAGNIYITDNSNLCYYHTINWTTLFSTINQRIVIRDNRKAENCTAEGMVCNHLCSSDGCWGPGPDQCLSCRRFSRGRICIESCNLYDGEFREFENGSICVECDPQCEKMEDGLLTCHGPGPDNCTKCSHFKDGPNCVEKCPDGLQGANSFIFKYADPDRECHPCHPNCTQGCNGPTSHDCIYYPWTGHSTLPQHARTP
Description: SPR; members taken from Table 1. (Surface plasmon resonance follows binding to a sensor surface in real time, without labels.)

1 molecule from US20090092617A1 (K BENHAVNS UNIVERSITET, published 2009) can be followed below.

These are yes or no findings as the source states them, for the method shown. Some binding calls cover weakened binding; strength is not graded here. Where a sequence is shown, tags or fusion partners need not be part of it.

For FVYNPTTFQLEMNFNAK (four monomers coupled to a lysine backbone (tetrameric dendrimer)) [Inherbin4 peptide, tetrameric dendrimer], the binding entry was “binds”.
